These are yes or no findings as the source states them, for the method shown. Binding seen in cells or lysates may run through a third protein. Here binding means that the protein was enriched with, or labelled near, the bait; the list need not be complete. For some assays here: A no says only that the protein was not detected with the bait.

Sequences of proteins named here, by UniProt entry; tags and fusion partners are left off.
UniProt Q8K0T4: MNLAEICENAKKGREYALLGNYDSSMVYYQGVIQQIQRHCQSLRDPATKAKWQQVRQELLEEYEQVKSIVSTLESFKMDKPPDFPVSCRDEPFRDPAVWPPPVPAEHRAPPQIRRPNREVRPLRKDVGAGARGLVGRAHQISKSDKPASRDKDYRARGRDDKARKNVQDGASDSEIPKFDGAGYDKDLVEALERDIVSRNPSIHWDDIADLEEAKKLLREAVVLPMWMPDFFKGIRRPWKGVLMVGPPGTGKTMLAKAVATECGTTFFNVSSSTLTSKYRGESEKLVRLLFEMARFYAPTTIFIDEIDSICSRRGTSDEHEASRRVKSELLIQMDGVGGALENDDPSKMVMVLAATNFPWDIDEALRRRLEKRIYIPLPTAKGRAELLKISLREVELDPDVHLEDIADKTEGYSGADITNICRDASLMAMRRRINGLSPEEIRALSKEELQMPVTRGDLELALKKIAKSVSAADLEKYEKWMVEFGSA
UniProt Q9WV86: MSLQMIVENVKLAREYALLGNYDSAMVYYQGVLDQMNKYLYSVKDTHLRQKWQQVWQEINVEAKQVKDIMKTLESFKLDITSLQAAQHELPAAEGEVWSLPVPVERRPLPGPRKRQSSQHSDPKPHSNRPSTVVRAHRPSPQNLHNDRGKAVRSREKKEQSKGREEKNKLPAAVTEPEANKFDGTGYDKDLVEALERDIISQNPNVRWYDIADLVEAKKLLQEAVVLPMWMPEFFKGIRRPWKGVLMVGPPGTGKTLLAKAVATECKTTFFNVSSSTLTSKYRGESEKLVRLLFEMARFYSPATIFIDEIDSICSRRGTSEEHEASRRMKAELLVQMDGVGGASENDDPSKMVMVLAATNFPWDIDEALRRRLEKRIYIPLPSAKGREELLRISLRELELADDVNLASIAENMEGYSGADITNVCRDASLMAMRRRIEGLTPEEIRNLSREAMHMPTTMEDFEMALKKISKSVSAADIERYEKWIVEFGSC
UniProt Q8BG40: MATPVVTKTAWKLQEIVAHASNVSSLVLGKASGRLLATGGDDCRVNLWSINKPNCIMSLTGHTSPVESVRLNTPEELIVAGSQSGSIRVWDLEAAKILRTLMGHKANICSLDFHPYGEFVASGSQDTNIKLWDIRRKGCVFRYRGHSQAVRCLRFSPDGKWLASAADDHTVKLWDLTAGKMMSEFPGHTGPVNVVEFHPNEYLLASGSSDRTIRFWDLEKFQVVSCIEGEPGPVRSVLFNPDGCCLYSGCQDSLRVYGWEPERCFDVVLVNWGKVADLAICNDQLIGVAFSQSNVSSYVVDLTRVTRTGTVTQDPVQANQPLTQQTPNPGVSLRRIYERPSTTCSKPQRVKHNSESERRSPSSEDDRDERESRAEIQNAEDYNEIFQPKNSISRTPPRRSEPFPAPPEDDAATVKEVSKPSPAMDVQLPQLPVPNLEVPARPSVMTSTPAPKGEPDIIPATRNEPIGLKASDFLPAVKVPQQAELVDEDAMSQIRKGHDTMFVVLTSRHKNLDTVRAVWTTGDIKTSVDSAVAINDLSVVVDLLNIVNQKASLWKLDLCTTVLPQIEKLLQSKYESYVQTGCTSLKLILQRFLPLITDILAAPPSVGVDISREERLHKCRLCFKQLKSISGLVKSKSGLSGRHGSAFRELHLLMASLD

Common to all, as to assay: affinity purification with mass spectrometry; in-house anti-KATNA1 (10 ug), anti-KATNAL1 (5 ug) or anti-KATNB1 (5 ug) antibody covalently coupled to AminoLink Plus resin (Pierce Co-IP kit); 5 mg pre-cleared WT mouse testis lysate (1% NP-40 in PBS, protease inhibitors), overnight at 4°C; negative control: antibody with non-amine-reactive control agarose resin; n=3 testes per IP; eluate digested with trypsin, LC-MS/MS, enrichment against control P<0.05

For assay [1], the target named is KATNAL1 (mouse (endogenous in testis)) (UniProt Q8K0T4).
Assay [2] has as its target KATNA1 (mouse (endogenous in testis)) (UniProt Q9WV86).
For assay [3], the target named is KATNB1 (mouse (endogenous in testis)) (UniProt Q8BG40).

For the molecule KATNB1 (from UniProt Q8BG40 1-658), in assay [1], the binding entry is reported as “binds”. Regarding KATNAL1 (from UniProt Q8K0T4 1-488), the binding result is recorded as “no binding” in assay [2] and “binds” in assay [3].

B1: KATNAL2 (protein, UniProt Q9D3R6 1-539)
chain: MELSYQTLKLTHQAREAYEMRTEARRKNLLILILHYLTQEGYMDAAKALEEETKLGLRRFEVCDNVDLETILMEYESYYFVKFQKYPKVVKKAPDPVENNLPSRSGGKNKRLTNDSCQNLPKICHQKSRPKTSAVKTGDTKSVKEHLKQVKESVTDTQAESTDFGLNISKIHKDQPEEKAQPRRGQIIDFRGLLSDAIKGATSEFALNTFECNPDPSERLLKPLSAFIGMNSEMRELAAVVSRDIYLHNPNIKWNDIIGLDAAKQLVKEAVVYPIRYPQLFTGILSPWKGLLLYGPPGTGKTLLAKAVATECKTTFFNISASTIVSKWRGDSEKLVRVLFELARYHAPSTIFLDELESVMSQRGMVPGGEHEGSLRMKTELLVQMDGLARSEDLVFVLAASNLPWELDCAMLRRLEKRILVDLPSQEARQAMIYHWLPPVSKNHALELHTQLEYSVLSQETEGYSGSDIKLVCREAAMRPVRKIFSVLENNQSESNNLPGIQLDTVTTQDFLDVLAHTKPSAKNLTERYLAWQEKFESV
Regarding B1, the binding result in assay [2] and in assay [1] was “no binding” in each case.

Values taken from article PMC10690054.
